# Measured values from US20030093119A1, “Eyelet reinforcement at the tissue-suture interface” (priority 2001, published 2003).
# How the values were obtained:
# tendon [1] = experiment: Tendon stiffness / localized elongation on MTS servohydraulic testing machine with DVRT; settings: under a 50 Newton load; tendon cross-linked with EDC; gage length approx. 30 mm
# canine flexor tendons = experiment: Single suture loop failure in locally reinforced eyelets (suture pullout on MTS machine); settings: eyelet reinforced by local injection via 22-gauge needle; 4/0 nylon single loop; distracted at 20 mm/min
# tendon [2] = experiment: Single suture loop failure (gripping strength) in whole EDC-treated tendon; settings: whole tendon EDC cross-linked; distracted at 20 mm/min until pullout
smiles,measurement,setting,value
CCN=C=NCCCN(C)C [EDC],localized tendon elongation within the DVRT portion,tendon [1],about 0.5 mm
same,average maximum force (single suture loop failure),canine flexor tendons,11.5±2.4 Newtons
same,failure mode of single suture loop,tendon [2],suture breakage at the peak load
